Experimental data from article PMC9897159.
Results are given in words; binding and its absence hold for the method and conditions named. In cells and extracts the contact can be indirect. Some binding calls cover weakened binding; strength is not graded here.

Assays:
Experiment in all cases: co-IP
[1] = molecular target: SARS-CoV-2 membrane (M) protein with an HA tag (SARS-CoV-2) (UniProt P0DTC5)
[2] = molecular target: SARS-CoV-2 envelope (E) protein with an HA tag (SARS-CoV-2) (UniProt P0DTC4)
[3] = molecular target: human RNF5 with a Flag tag (human) (UniProt Q99942)

Substance | binding [1] | binding [2] | binding [3]
human RNF5 with a Flag tag (from UniProt Q99942 1-180) (enzyme) | binds | binds | –
SARS-CoV-2 envelope (E) protein with an HA tag (from UniProt P0DTC4 1-75) | – | – | binds
